The source of these data is article PMC5833746.

The chains behind the UniProt entries cited, without tags or fusion partners.
UniProt P35222: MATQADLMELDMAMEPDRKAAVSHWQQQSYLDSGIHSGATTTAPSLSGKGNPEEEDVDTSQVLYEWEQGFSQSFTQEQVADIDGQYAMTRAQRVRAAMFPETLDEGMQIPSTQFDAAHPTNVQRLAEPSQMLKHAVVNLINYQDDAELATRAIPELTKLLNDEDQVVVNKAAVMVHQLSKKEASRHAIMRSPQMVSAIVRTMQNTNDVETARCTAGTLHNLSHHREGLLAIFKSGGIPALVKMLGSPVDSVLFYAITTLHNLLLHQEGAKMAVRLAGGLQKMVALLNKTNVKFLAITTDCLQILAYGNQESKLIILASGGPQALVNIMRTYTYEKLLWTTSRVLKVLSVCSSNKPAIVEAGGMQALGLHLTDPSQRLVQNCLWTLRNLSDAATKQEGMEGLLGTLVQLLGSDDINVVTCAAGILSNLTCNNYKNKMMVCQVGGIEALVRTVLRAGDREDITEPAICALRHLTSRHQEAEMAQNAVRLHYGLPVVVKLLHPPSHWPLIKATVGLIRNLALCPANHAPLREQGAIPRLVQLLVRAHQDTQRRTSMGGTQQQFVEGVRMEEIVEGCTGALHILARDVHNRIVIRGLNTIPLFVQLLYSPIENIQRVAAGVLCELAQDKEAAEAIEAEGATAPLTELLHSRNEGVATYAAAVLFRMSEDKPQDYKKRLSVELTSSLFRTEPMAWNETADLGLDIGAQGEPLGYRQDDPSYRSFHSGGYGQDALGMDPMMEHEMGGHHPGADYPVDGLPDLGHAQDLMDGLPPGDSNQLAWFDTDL
UniProt Q9UJU2: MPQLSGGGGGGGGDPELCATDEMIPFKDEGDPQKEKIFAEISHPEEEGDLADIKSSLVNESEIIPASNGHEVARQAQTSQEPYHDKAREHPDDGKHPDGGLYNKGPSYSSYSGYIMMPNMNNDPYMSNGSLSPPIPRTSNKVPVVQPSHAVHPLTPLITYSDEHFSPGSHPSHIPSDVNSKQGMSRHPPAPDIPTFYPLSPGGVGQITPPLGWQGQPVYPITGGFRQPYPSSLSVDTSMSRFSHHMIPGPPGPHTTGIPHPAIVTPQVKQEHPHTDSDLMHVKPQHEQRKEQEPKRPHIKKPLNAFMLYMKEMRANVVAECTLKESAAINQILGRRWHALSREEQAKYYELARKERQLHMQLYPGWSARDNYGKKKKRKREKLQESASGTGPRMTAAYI

This experiment addresses β-catenin (human (endogenous in Hep3B)) (UniProt P35222). Put plainly: co-IP; Hep3B lysates (stable lines with pCMV6-A-GFP or pCMV6-A-GFP-MEG3; in Fig. 9E also MEG3 plus pGFP-V-RS-PTEN knock-down); 50 mM Tris-HCl pH 7.6, 150 mM NaCl, 1% NP40, 0.1 mM EDTA, 1.0 mM DTT; 2 µg antibody, protein G/A-plus agarose beads, 4 °C; normal IgG as negative control; Western blotting.

No constants are given. Whether binding was seen depends on the method and setting. Binding seen in cells or lysates may run through a third protein. Some binding calls cover weakened binding; strength is not graded here.

On to LEF (from UniProt Q9UJU2 1-399), for which the binding result is on record as “binds”.
